For one test, the target named is T1, GST-fused ALDOA (UniProt P04075).
T1 sequence: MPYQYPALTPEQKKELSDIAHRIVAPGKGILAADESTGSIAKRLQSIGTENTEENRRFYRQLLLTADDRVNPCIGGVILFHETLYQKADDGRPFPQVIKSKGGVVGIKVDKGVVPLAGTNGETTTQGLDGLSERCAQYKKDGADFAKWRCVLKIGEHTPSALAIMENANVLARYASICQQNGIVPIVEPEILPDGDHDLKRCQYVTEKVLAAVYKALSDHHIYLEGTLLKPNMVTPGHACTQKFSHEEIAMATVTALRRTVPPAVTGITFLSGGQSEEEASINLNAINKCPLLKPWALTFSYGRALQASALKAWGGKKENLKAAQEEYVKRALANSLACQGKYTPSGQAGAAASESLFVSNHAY
Put plainly: pull-down; GST pull-down; GST fusion as bait, prey 'endogenous transcribed/translated' protein, western blotting; only the target purified. Background: Immunoblotting shows a protein as a band on a membrane.

The chains behind the UniProt entries cited, without tags or fusion partners.
UniProt Q16665: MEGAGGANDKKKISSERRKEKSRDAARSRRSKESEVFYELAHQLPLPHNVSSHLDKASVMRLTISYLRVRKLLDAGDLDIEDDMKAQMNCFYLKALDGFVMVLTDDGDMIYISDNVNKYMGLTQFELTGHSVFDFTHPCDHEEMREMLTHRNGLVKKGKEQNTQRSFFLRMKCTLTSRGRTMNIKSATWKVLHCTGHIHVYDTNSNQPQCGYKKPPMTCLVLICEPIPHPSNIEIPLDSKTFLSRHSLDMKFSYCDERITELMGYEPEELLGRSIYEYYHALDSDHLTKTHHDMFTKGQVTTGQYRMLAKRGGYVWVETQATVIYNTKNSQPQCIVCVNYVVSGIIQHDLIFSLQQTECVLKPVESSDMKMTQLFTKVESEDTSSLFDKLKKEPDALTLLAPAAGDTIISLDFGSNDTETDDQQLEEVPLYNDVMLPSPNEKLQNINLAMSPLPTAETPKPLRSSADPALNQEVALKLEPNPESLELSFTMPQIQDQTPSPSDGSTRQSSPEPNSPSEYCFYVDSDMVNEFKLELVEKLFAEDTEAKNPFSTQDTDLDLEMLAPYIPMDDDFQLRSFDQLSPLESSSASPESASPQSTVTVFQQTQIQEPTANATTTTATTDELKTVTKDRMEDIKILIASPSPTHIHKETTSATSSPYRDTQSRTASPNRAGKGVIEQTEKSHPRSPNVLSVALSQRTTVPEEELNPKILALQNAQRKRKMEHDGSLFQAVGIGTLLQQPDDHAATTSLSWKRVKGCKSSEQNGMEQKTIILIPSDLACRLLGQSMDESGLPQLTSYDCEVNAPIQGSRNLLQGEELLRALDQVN

Test [1] has as its target hypoxia-inducible factor 1α (HIF-1α) (human (endogenous in MCF-7 and MDA-MB-231)) (UniProt Q16665). Put plainly: co-IP; endogenous proteins, MCF-7 and MDA-MB-231 lysates, anti-HIF-1α or IgG, western blotting; with or without ATP treatment of the cells.
For a further test, the target named is GST-fused HIF-1α (UniProt Q16665). Kind of test: pull-down; GST pull-down; GST fusion as bait, prey 'endogenous transcribed/translated' protein, western blotting; only the target purified.

In paper PMC8891368 one finds binding data, which are given here for three molecules.

These are yes or no findings as the source states them, for the method shown. Binding seen in cells or lysates may run through a third protein. Some binding calls cover weakened binding; strength is not graded here. For part of these data: Tags and fused reporters may be left off the sequences shown.

For the molecule “endogenous transcribed/translated HIF-1α (from UniProt Q16665 1-826)”, the binding result with GST-fused ALDOA is “binds”.

B1: aldolase A (ALDOA) (protein, UniProt P04075 1-364)
chain: T1 sequence
For B1, the binding entry in test [1] was “binds”.

B2: endogenous transcribed/translated ALDOA (protein, UniProt P04075 1-364)
chain: T1 sequence
With B2, the binding entry with GST-fused HIF-1α is “binds”.
